Source: PubChem BioAssay AID1259254 (NCATS, 2017)

Aim: 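Genome-wide screen for genes that prevent DNA re-replication in cancer cells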 (primary screen)
Cell system: human HCT116 colorectal cancer cells
Knock-down reagent: single siRNA against human genes
Timing: 3 days
Measurement: 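Nuclei stained with Hoechst and imaged; cell-cycle phase assigned by DNA content; G2 share scaled per plate, non-targeting siRNA 0%, GMNN siRNA 100%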
Scale: G2 robust z-score and G2 cells, % of GMNN control: higher = more G2 cells, more excess DNA replication; raw share of cells in G2: higher = larger share of cells with G2 DNA content
Active means: 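An siRNA counts as active if its G2 robust z-score lies at least 5 MADs above the screen median; here such calls match roughly 38% of GMNN control or more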
The deposit covers about 59,000 reagents; this is a part drawn at random. About 1,550 of all reagents (2.6%) were called active. 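G2 share is only a proxy for re-replication; each gene was hit by three separate siRNAs, and active genes were retested.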 Raw values are not corrected between plates. Unmarked entries are inactive. The numbers tell different reagents against one gene apart. The record does not give: the amount of reagent.

| target | siRNA no. | G2 robust z-score | G2 cells, % of GMNN control | raw share of cells in G2 (%) |
| --- | --- | --- | --- | --- |
| PRP4K | 1 | -1.03 | -4.27 | 4.26 |
| PRP4K | 2 | -0.684 | -1.85 | 4.52 |
| PRP4K | 3 | -1.15 | -5.12 | 2.04 |
| UBR4 | 1 | 1.21 | 11.5 | 8 |
| UBR4 | 2 | -0.166 | 1.8 | 4.48 |
| UBR4 | 3 | -1.75 | -9.33 | 2.63 |
| CEP128 | 1 | -0.881 | -3.23 | 1.94 |
| CEP128 | 2 | 1.74 | 15.2 | 8.93 |
| CEP128 | 3 | -0.0982 | 2.28 | 3.62 |
| KBTBD11 | 1 | -0.365 | 0.401 | 5.51 |
| KBTBD11 | 2 | 0.586 | 7.09 | 6.9 |
| KBTBD11 | 3 | -0.00963 | 2.9 | 4.46 |
| UIMC1 | 1 | -0.298 | 0.873 | 3.92 |
| UIMC1 | 2 | 1.58 | 14.1 | 10.2 |
| UIMC1 | 3 | -1.13 | -5.02 | 1.53 |
| C4orf50 | 1 | 2 | 17 | 9.17 |
| C4orf50 | 2 | -0.523 | -0.713 | 2.7 |
| C4orf50 | 3 | 0.321 | 5.22 | 6.25 |
| CORO1A | 1 | 2.14 | 18 | 13.6 |
| CORO1A | 2 | -0.611 | -1.33 | 3.71 |
| CORO1A | 3 | 0.868 | 9.07 | 6.97 |
| WAC | 1 | -1.25 | -5.8 | 1.53 |
| WAC | 2 | -0.649 | -1.6 | 3.6 |
| WAC | 3 | -1.04 | -4.35 | 1.76 |
| PMS2P3 | 1 | -0.513 | -0.641 | 4.76 |
| PMS2P3 | 2 | 0.237 | 4.64 | 6.45 |
| PMS2P3 | 3 | -0.207 | 1.51 | 4.65 |
| NANOS1 | 1 | 1.51 | 13.6 | 9.25 |
| NANOS1 | 2 | 2.51 | 20.6 | 13 |
| NANOS1 | 3 | -0.692 | -1.9 | 5.08 |
| KIFC3 | 1 | -1.1 | -4.76 | 3.87 |
| KIFC3 | 2 | 2.67 | 21.8 | 12.2 |
| KIFC3 | 3 | -0.578 | -1.1 | 4.64 |
| PNMA8B | 1 | -0.972 | -3.87 | 2.82 |
| PNMA8B | 2 | -0.56 | -0.97 | 4 |
| PNMA8B | 3 | -0.887 | -3.27 | 1.99 |
| EPHB4 | 1 | -0.815 | -2.76 | 4.69 |
| EPHB4 | 2 | -1.03 | -4.27 | 3.97 |
| EPHB4 | 3 | -0.838 | -2.93 | 2.99 |
| RARA | 1 | -0.143 | 1.96 | 6.34 |
| RARA | 2 | -1.04 | -4.36 | 3.05 |
| RARA | 3 | -0.538 | -0.816 | 3.69 |
| BEST2 | 1 | 0.314 | 5.18 | 7.17 |
| BEST2 | 2 | 5.25 (active) | 39.9 | 18.3 |
| BEST2 | 3 | -0.414 | 0.055 | 4.4 |
| GPC4 | 1 | 0.259 | 4.79 | 7.55 |
| GPC4 | 2 | 0.178 | 4.22 | 5.63 |
| GPC4 | 3 | 0.0455 | 3.29 | 4.81 |
| ZC3HAV1 | 1 | -1.06 | -4.49 | 2.83 |
| ZC3HAV1 | 2 | 3.11 | 24.9 | 14.7 |
| ZC3HAV1 | 3 | -0.0124 | 2.88 | 7.69 |
| SURF4 | 1 | 2.43 | 20.1 | 14 |
| SURF4 | 2 | -0.00421 | 2.94 | 5.06 |
| SURF4 | 3 | 0.201 | 4.38 | 4.9 |
| KIF1C | 1 | 1.24 | 11.7 | 7.62 |
| KIF1C | 2 | -1.49 | -7.52 | 3.51 |
| KIF1C | 3 | -0.582 | -1.13 | 5.21 |
| ZIC2 | 1 | 0.651 | 7.55 | 6.04 |
| ZIC2 | 2 | -1.18 | -5.32 | 3.62 |
| ZIC2 | 3 | -0.174 | 1.74 | 4.07 |
| CNTD1 | 1 | 0.053 | 3.34 | 5.43 |
| CNTD1 | 2 | 0.533 | 6.72 | 5.33 |
| CNTD1 | 3 | -0.571 | -1.05 | 1.51 |
| TBC1D3P2 | 1 | -0.498 | -0.535 | 3.57 |
| TBC1D3P2 | 2 | -0.155 | 1.88 | 3.92 |
| TBC1D3P2 | 3 | 1.89 | 16.3 | 8.2 |
| LMX1B | 1 | -0.586 | -1.15 | 4.91 |
| LMX1B | 2 | 0.0628 | 3.41 | 4.32 |
| LMX1B | 3 | 0.119 | 3.8 | 6.98 |
